These results are taken from patent US5703232A, “Process and solvate of 2-methyl-thieno-benzodiazepine” (Eli Lilly and Company, priority 1996, dated 1997).

The assay has as its system 5-HT1C receptor. To be noted: in vitro.

Molecules are shown by their SMILES.

Take `Cc1cc2c(s1)Nc1ccccc1N=C2N1CCN(C)CC1` [anhydrous Form I olanzapine, 2-methyl-4-(4-methyl-1-piperazinyl)-10H-thieno[2,3-b][1,5]benzodiazepine]: the “activity at the 5-HT1C receptor” value is recorded as “active”.
